Measured values published in PubChem BioAssay AID493236 (Broad Institute, 2011).
These results got no clear call from the source, so the numbers are uncertain.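 The calls were made as follows: active = luminescence cut by more than half of the full-inhibition control window in a dose series; inconclusive = no clear call, values can overlap the other calls; inactive = signal rising instead of falling, or the rest.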

System: proteasome chymotrypsin-like activity (human)
Assay: proteasome chymotrypsin-like activity inhibitors, dose response, counter-screen for HIF pathway activator project, cell-based, U2OS, luminescence, dry powder, set 4 (AID 493236)
Settings: U2OS cells, Proteasome-Glo chymotrypsin luminescence; at 38 µM (top of the series)
Procedure, shortened: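 test system = U2OS cells | schedule = 24 h plating, 4 h compound, 2 h reagent | compound dosing = 8 concentrations, 3-fold steps | controls = MG132 1 µM positive control, DMSO neutral control | measured by = Proteasome-Glo luminescence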

## O=c1[nH]c2ccccc2n1C1CCN(Cc2ccc(O)c3ncccc23)CC1
  activity change, negative = inhibition: inconclusive: -7.75%
